Taken from: PubChem BioAssay AID504795 (Drosophila RNAi Screening Center, 2011)

Purpose: 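Knock-downs causing abnormal branching, bundling, swelling or growth of cultured neurons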 (primary screen)
Cell system: primary Drosophila neurons and glia
Reagent: long dsRNA against Drosophila genes, 250 ng dsRNA per well
Timing: one week
Measurement: 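Descriptive morphology terms assigned by visual inspection of live automated images of GFP-marked cells, taken one week after adding 250 ng dsRNA per well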
This is not the whole library: the list holds selected reagents. 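Every listed dsRNA shows some phenotype; how reagents were selected for listing is not stated.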 Names joined by + are all predicted targets of the reagent. No sequences are given here.

CG5770 (GeneID 37054) [DRSC06954] gave phenotype seen, replicate 1 = axon bundles split apart.
With knock-down of CG14854 (GeneID 41761) [DRSC14978] the results were phenotype seen, replicate 1 = too many neurite branches.
AANATL2 (GeneID 33874) [DRSC03227] showed phenotype seen, replicate 1 = too many neurite branches.
Silencing of SLO2 (GeneID 5740325) [DRSC06212] resulted in: phenotype seen, replicate 1 = axon bundles split apart.
For SLO2 (GeneID 5740325) [DRSC06216], the entry reads phenotype seen, replicate 1 = too many neurite branches.
Silencing of SLO2 (GeneID 5740325) [DRSC06218] gave: phenotype seen, replicate 1 = sheet-like cell extensions.
CG12661 (GeneID 31822) [DRSC17864] scored phenotype seen, replicate 1 = too many neurite branches.
With knock-down of Obp47a (GeneID 36162) [DRSC06255], the screen gave phenotype seen, replicate 1 = too many neurite branches.
Gr36a (GeneID 117488) [DRSC22663] gave phenotype seen, replicate 1 = beaded; swollen axons.
Mob4 (GeneID 35576) [DRSC04993] gave phenotype seen, replicate 1 = abnormal cell clusters.
After knock-down of hop (GeneID 32080) [DRSC20340] the results were phenotype seen, replicate 1 = sheet-like cell extensions.
Against MAGE (GeneID 40860) [DRSC12504] the deposit lists phenotype seen, replicate 1 = too many neurite branches.
Against PGRP-SB2 (GeneID 39869) [DRSC11092], the values are phenotype seen, replicate 1 = reduced axon outgrowth.
Galphaf (GeneID 39861) [DRSC11171] gave phenotype seen, replicate 1 = axon bundles split apart.
Cals (GeneID 43824) [DRSC21661] gave phenotype seen, replicate 1 = axon bundles split apart.
blanks (GeneID 38620) [DRSC09757] showed phenotype seen, replicate 1 = too many neurite branches.
BG642163 (GeneID 4379888) [DRSC00343] showed phenotype seen, replicate 1 = abnormal cell clusters.
After knock-down of CG9130 + CG9133 [DRSC08624] the results were phenotype seen, replicate 1 = too many neurite branches.
Silencing of hiw (GeneID 32429) [DRSC20339] resulted in: phenotype seen, replicate 1 = reduced axon outgrowth.
Depletion of Lgr4 (GeneID 5740505) [DRSC18970] came out at: phenotype seen, replicate 1 = too many neurite branches.
Silencing of asRNA:CR42743 + CG34162 [DRSC01190] gave: phenotype seen, replicate 1 = axon bundles split apart.
Silencing of Gr28b (GeneID 117496) [DRSC02292] gave: phenotype seen, replicate 1 = too many neurite branches.
After knock-down of t-cup (GeneID 318986) [DRSC01254] the results were phenotype seen, replicate 1 = axon bundles split apart.
Against nes (GeneID 40093) [DRSC11375] the deposit lists phenotype seen, replicate 1 = too many neurite branches.
For serp (GeneID 40150) [DRSC11035], the values are phenotype seen, replicate 1 = fewer cells.
After knock-down of Ref1 (GeneID 44029) [DRSC12497] the results were phenotype seen, replicate 1 = axon bundles split apart.
With knock-down of Ref1 (GeneID 44029) [DRSC22387] the results were phenotype seen, replicate 1 = too many neurite branches.
After knock-down of CG33110 (GeneID 42659) [DRSC14694], the record shows phenotype seen, replicate 1 = too many neurite branches.
With knock-down of CG10254 (GeneID 42793) [DRSC14153], the screen gave phenotype seen, replicate 1 = beaded; swollen axons.
MED27 (GeneID 40696) [DRSC12205] scored phenotype seen, replicate 1 = too many neurite branches.
With knock-down of dpr11 (GeneID 40800) [DRSC12563] the results were phenotype seen, replicate 1 = too many neurite branches.
With knock-down of CG11437 (GeneID 40470) [DRSC11659], the screen gave phenotype seen, replicate 1 = fewer cells.
Sqor (GeneID 38514) [DRSC08453] gave phenotype seen, replicate 1 = axon bundles split apart.
Silencing of CG32206 (GeneID 40105) [DRSC10094] resulted in: phenotype seen, replicate 1 = axon bundles split apart.
Against CG32206 (GeneID 40105) [DRSC10095], the values are phenotype seen, replicate 1 = sheet-like cell extensions.
For CG32206 (GeneID 40105) [DRSC10096], the entry reads phenotype seen, replicate 1 = fewer cells.
Depletion of CG12902 (GeneID 36092) [DRSC06217] gave: phenotype seen, replicate 1 = axon bundles split apart.
After knock-down of CG18557 (GeneID 33483) [DRSC00524], the screen gave phenotype seen, replicate 1 = too many neurite branches.
After knock-down of boca (GeneID 48986) [DRSC06408], the record shows phenotype seen, replicate 1 = abnormal cell clusters.
With knock-down of Nab2 (GeneID 42897) [DRSC14158], the record shows phenotype seen, replicate 1 = cell fragments present.
Spn77Bb + Spn77Bc [DRSC10689] gave phenotype seen, replicate 1 = abnormal cell clusters.
Spn77Bb + Spn77Bc [DRSC11793] scored phenotype seen, replicate 1 = axon bundles split apart.
CG7320 (GeneID 40010) [DRSC10810] showed phenotype seen, replicate 1 = reduced axon outgrowth.
CG31161 (GeneID 326123) [DRSC16144] scored phenotype seen, replicate 1 = axon bundles split apart.
Silencing of twin (GeneID 42880) [DRSC21363] gave: phenotype seen, replicate 1 = reduced axon outgrowth.
Knock-down of DIP1 (GeneID 43981) [DRSC20818] came out at: phenotype seen, replicate 1 = fewer cells.
CG43897 (GeneID 39153) [DRSC10965] scored phenotype seen, replicate 1 = abnormal cell clusters; phenotype seen, replicate 2 = sheet-like cell extensions.

Targets listed so far whose target name begins with S or s:
SLO2 (GeneID 5740325) [DRSC06212] → phenotype seen, replicate 1: axon bundles split apart
SLO2 (GeneID 5740325) [DRSC06216] → phenotype seen, replicate 1: too many neurite branches
SLO2 (GeneID 5740325) [DRSC06218] → phenotype seen, replicate 1: sheet-like cell extensions
serp (GeneID 40150) [DRSC11035] → phenotype seen, replicate 1: fewer cells
Sqor (GeneID 38514) [DRSC08453] → phenotype seen, replicate 1: axon bundles split apart
Spn77Bb + Spn77Bc [DRSC10689] → phenotype seen, replicate 1: abnormal cell clusters
Spn77Bb + Spn77Bc [DRSC11793] → phenotype seen, replicate 1: axon bundles split apart
